LdMetRS: 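Primary screen of methionyl-tRNA synthetase; the read-out is not stated. Target: Methionyl-tRNA synthetase (putative), Leishmania donovani (UniProt E9BF75). The test concentration is not given. Values are per cent inhibition. Size under these conditions: about 68,000 compounds, about 24 of them at 50% or above in at least one test.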
Mtb heat-shock: 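Assay on Mycobacterium tuberculosis, filed only as a heat shock assay from Cornell; the read-out is not stated. The concentration is filed as 10 mM, unlikely as a test dose, so the dose is not known. Higher reads as stronger inhibition (inferred: compounds with an IC50 in retests scored well above the rest). Size under these conditions: about 69,000 compounds, about 930 of them at 50% or above in at least one test.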

Chains of the proteins cited; added tags and fusions are not shown.
UniProt E9BF75, entry or part of it: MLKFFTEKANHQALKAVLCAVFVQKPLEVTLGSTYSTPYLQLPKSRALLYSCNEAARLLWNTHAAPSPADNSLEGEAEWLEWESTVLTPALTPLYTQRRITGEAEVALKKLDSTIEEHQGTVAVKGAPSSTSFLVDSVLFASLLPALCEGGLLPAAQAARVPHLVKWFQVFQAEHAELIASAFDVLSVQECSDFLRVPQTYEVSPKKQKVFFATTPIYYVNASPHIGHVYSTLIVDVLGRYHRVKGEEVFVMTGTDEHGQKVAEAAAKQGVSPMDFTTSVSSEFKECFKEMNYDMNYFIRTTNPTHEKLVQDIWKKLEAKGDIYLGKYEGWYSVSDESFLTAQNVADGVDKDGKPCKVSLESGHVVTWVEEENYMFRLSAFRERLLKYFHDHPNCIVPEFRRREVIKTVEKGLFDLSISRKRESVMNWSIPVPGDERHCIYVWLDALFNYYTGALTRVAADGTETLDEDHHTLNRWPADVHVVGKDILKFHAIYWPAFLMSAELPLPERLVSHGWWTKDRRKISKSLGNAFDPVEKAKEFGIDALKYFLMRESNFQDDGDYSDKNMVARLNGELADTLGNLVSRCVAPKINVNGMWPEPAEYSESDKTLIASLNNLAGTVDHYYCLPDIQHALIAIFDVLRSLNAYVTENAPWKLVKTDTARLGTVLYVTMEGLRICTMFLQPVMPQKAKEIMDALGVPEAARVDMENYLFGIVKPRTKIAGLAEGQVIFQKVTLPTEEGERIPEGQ

All values are in %.
How 0% and 100% were set is not recorded. Most values in the screen are low, and negative values occur.
Compounds were drawn at random from those tested, without regard to their results.
A dash means the value is not listed here; it may have been measured.

compound | LdMetRS | Mtb heat-shock
O=C(O)C(F)(F)F.O=C(O)C(F)(F)F.[H][C@@]12CN(Cc3ccncc3)C[C@]1([H])[C@H](OC)CCN2S(=O)(=O)N(C)C | - | 14.05%
O=C(O)c1cc(-n2cc3c(n2)CCC3)cc(S(=O)(=O)N2CCOCC2)c1 | 18.4% | -9.324%
N#Cc1ccc(C2CC(=O)Nc3c(C(=O)O)nsc32)cc1 (stereo not given) | -3.769% | 13.92%
CC(=O)N(Cc1ncc(C)o1)C1CCN(Cc2cnc(C)s2)C1 (stereo not given) | 10.06% | 6.862%
NC(=O)CCS(=O)(=O)Cc1ccc(OCC(F)(F)F)cc1 | 13.83% | 31.13%
CNC(=O)[C@@H]1C[C@@H](N)CN1c1nc(N2CCCC2)nc(C)c1C | 12.94% | -5.476%
O=C(O)C(F)(F)F.O=C(O)C(F)(F)F.[H][C@@]12COC[C@]1(CN(C)C)CN(Cc1cc(C)on1)C2 | - | -1.229%
CN(C)C(=O)N1CCN(C(=O)c2ccc(Cl)cc2)CC2(CNC(=O)C2)C1 (stereo not given) | 3.65% | -5.675%
CC(C)c1cc(C(=O)N2C[C@H]3CC[C@@H]2CN(Cc2cscn2)C3)no1 | 10.76% | -
CN(CCc1cn[nH]c1)C(=O)C1CC(=O)N(Cc2ccccn2)C1 (stereo not given) | 9.622% | -13.76%
CC(C(=O)NCC1(c2c(F)cccc2F)CCCC1)S(C)(=O)=O (stereo not given) | 13.69% | -2.346%
CNS(=O)(=O)c1ccc(C(=O)N2CCCCC2c2ccc(C)cc2)o1 (stereo not given) | 15.92% | -0.7581%
CCC(CO)NCc1ccc(-c2ccc(Cl)cc2)o1 (stereo not given) | 6.842% | -
CC(C)Cc1cc(NC(=O)c2ccc[nH]2)n(C)n1 | 16.6% | -3.743%
O=C(O)C(F)(F)F.[H][C@]12CCN(c3ncccn3)[C@@]1([H])C[C@@H](C(=O)Nc1nc(C)cs1)O2 | - | 15.97%
CCCS(=O)(=O)NCc1cccnc1OCc1ccccc1 | 26.09% | 1.995%
COc1cccc(CN2C[C@@H]3COC[C@]3(COCc3ccncc3)C2)c1 | 17.17% | -
Cc1nn(-c2ccccc2)c(C)c1-c1ccnc(N2CCCOCC2)n1 | 14.4% | -3.954%
Cc1cn[nH]c1C1CCCCN1C(=O)CCc1ccc(F)cc1 (stereo not given) | 11.53% | -9.971%
O=C(O)[C@@H]1CN(C(=O)CSCC2CC2)C[C@H]1c1ccncc1 | 5.415% | -19.71%
O=C(Cc1ccsc1)NC1CCc2c(ccc(=O)n2CC2CC2)C1 (stereo not given) | -2.439% | -14.92%
CCN(Cc1noc(C)n1)C(=O)C(c1ccc(C)cc1)N(C)C (stereo not given) | 10.99% | -18.33%
[H][C@]12CCN(S(=O)(=O)c3ccc(C)cc3)[C@@]1([H])CC[C@@H](COC)O2 | - | -6.613%
COCc1cncc2c1CCN(Cc1cnn(C)c1)C2.O=C(O)C(F)(F)F.O=C(O)C(F)(F)F | - | -32.37%
CSc1ncccc1C(=O)N1CCC2(CC1)OCCCC2O (stereo not given) | 6.948% | 9.306%
Cc1cncc(C2CCCN(C(=O)c3scnc3C)C2)n1 (stereo not given) | 16.78% | -0.6949%
CCCC(=O)N1CCC(c2nn(C)c(=O)n2-c2ccccc2)CC1 | 7.971% | 11.17%
CN(CCC#N)C(=O)CN(C1CC1)C1CCc2ccccc21 (stereo not given) | 8.877% | -24.31%
COC(CNC(=O)C1CCCC1)c1ccc(C)s1 (stereo not given) | 7.645% | -9.156%
CC(C)CC(=O)Nc1ccc2c(c1)ncn2CC(=O)NCCN(C)C | 15.05% | 65.51%
Cc1noc(C)c1CN1C[C@@H](N(C)Cc2ccco2)[C@H]2OCCC[C@H]21 | 21.43% | -
CCCc1noc(CN2CCOCC2C)n1 (stereo not given) | 6.306% | -4.307%
Cc1c(NC(=O)NCCO)cccc1OC1CCCC1 | 17.04% | -4.801%
COCC(C)N(C)C(=O)NC1CCN(c2ncccn2)CC1 (stereo not given) | 0.8021% | 4.926%
[H][C@]12CN(Cc3ncccn3)CC[C@@]1(O)CCN(C(=O)C1CCC1)C2 | - | 6.699%
Cc1cccc(CNC(=O)C2CCC(=O)N(Cc3ccccc3F)C2)n1 (stereo not given) | 8.04% | 18.29%
CC(C)c1nnc(NC(=O)C2CSCN2C(=O)C2CCC2)s1 (stereo not given) | 13.36% | 2.129%
CC(=O)N1CCC2(CCCN(C(=O)c3ccc(Cl)c(C(F)(F)F)c3)C2)C1 (stereo not given) | 5.229% | -19.91%
c1cnc(N2CCCC(NCc3ccc(-n4ccnc4)cc3)C2)nc1 (stereo not given) | 9.966% | -
CC(C)c1cc(=O)[nH]c(-c2ccccc2CN2CCCC2C)n1 (stereo not given) | 4.077% | 6.617%
CCCC(NC(=O)c1occc1C)c1nnn[nH]1 (stereo not given) | 20.16% | -5.73%
Cc1cc(NC(=O)CCn2cncn2)no1 | 6.625% | -1.922%
CCCC(C)C(=O)N1CCC(n2cccc2C(=O)OC)CC1 (stereo not given) | 10.1% | 18.23%
COCCNS(=O)(=O)c1cccc2c1CN(C(=O)c1cnccn1)CC2 | 2.688% | 3.399%
CCCS(=O)(=O)N1CCN(c2ccnc(N3CCCCC3)n2)CC1 | 13.98% | -4.806%
CN(Cc1ccsc1)Cc1nc(-c2cnccn2)no1 | 4.8% | 5.434%
CN(C)c1cccc(CNCc2ccc(N3CCOCC3)cc2)c1 | 1.292% | -29.06%
O=C(CCc1nc(Cl)n[nH]1)N[C@H]1CC[C@H]1NC1Cc2ccccc2C1 | 15.25% | -16.72%
CNC(=O)CCc1cc(C2CCCCN2C(C)C)nc(C)n1 (stereo not given) | 12.26% | 2.045%
[H][C@@]12CS(=O)(=O)C[C@]1([H])N(Cc1ccoc1)CCN2Cc1ccncc1 | - | -9.374%
[H][C@@]12CCN(Cc3c(C)noc3C)C[C@@]1([H])O[C@@H](c1nccs1)C2 | - | -52.1%
CCn1c(Cn2cncn2)nnc1C1CCN(Cc2ccncc2)CC1 | 14.5% | 3.325%
Cc1ncsc1C(=O)Nc1ccccn1 | 19.72% | 20.65%
NC(=O)C1CCN(C(C(=O)O)c2ccc(Cl)c(C(F)(F)F)c2)CC1 (stereo not given) | 0% | -11.96%
CC(NC(=O)COc1ccc(Cl)cc1Cl)c1nncn1C(C)C (stereo not given) | 3.015% | 4.546%
O=S(=O)(C1CC1)N1CCOCC2(CN(c3ncccn3)CCO2)C1 (stereo not given) | 14.6% | -9.005%
O=C(O)C(F)(F)F.[H][C@]12CCC[C@@]1(COCC(=O)N(C)C)CNC2 | - | -9.407%
CS(=O)(=O)N1Cc2ccnn2CC(C(=O)NCc2cccnc2)C1 (stereo not given) | 1.039% | -
Cc1ccc(-c2nc(CN3CCOC(CN(C)C)C3)co2)cc1 (stereo not given) | 21.49% | 13.11%
Cn1cc(N2CC3(CCN(CC4CC4)C3)CC2=O)cn1.O=C(O)C(F)(F)F (stereo not given) | - | -38.49%
CCn1cc(C(=O)NCC2(C(N)=O)CCOCC2)c2ccccc21 | 18.44% | -6.186%
CN(CC1CC1)c1ccc2ccc(C(=O)NCCN3CCOCC3)cn12 | 34.68% | -22.01%
O=C(O)C(F)(F)F.[H][C@]12CC[C@@]3(N=C(c4ccccc4)NC3=O)[C@@]1([H])CN(Cc1ccccc1)C2 | - | 20.63%
Cc1ocnc1C(=O)N[C@H]1CN(CC2CCC2)C[C@@H]1C(C)C | 8.075% | -7.406%
CC(C)(C)c1nnc(CN2CCOC(Cn3cccn3)C2)o1 (stereo not given) | 10.8% | -7.765%
Cc1cccc(C(=O)N(C)CC(=O)N2CCCC2)c1C | -1.242% | -2.313%

The last 8 entries again:

{"compound": "Cc1ccc(-c2nc(CN3CCOC(CN(C)C)C3)co2)cc1", "stereo": "stereo not given", "LdMetRS": 21.49, "Mtb heat-shock": 13.11}
{"compound": "Cn1cc(N2CC3(CCN(CC4CC4)C3)CC2=O)cn1.O=C(O)C(F)(F)F", "stereo": "stereo not given", "Mtb heat-shock": -38.49}
{"compound": "CCn1cc(C(=O)NCC2(C(N)=O)CCOCC2)c2ccccc21", "LdMetRS": 18.44, "Mtb heat-shock": -6.186}
{"compound": "CN(CC1CC1)c1ccc2ccc(C(=O)NCCN3CCOCC3)cn12", "LdMetRS": 34.68, "Mtb heat-shock": -22.01}
{"compound": "O=C(O)C(F)(F)F.[H][C@]12CC[C@@]3(N=C(c4ccccc4)NC3=O)[C@@]1([H])CN(Cc1ccccc1)C2", "Mtb heat-shock": 20.63}
{"compound": "Cc1ocnc1C(=O)N[C@H]1CN(CC2CCC2)C[C@@H]1C(C)C", "LdMetRS": 8.075, "Mtb heat-shock": -7.406}
{"compound": "CC(C)(C)c1nnc(CN2CCOC(Cn3cccn3)C2)o1", "stereo": "stereo not given", "LdMetRS": 10.8, "Mtb heat-shock": -7.765}
{"compound": "Cc1cccc(C(=O)N(C)CC(=O)N2CCCC2)c1C", "LdMetRS": -1.242, "Mtb heat-shock": -2.313}

Data taken from ChEMBL document CHEMBL3988442, “University of Dundee, Small-Polar-MMV Screening Library” (2021).